# Laboratory results as given in patent publication US20040014701A1, “Inhibiting retrotransposon and retroviral integration by targeting the atm pathway” (priority 2003, published 2004).
# The chains behind the UniProt entries cited, without tags or fusion partners. Where a name states a change or a piece, a line headed by the entry shows the natural chain unless it says otherwise.
# UniProt Q13315: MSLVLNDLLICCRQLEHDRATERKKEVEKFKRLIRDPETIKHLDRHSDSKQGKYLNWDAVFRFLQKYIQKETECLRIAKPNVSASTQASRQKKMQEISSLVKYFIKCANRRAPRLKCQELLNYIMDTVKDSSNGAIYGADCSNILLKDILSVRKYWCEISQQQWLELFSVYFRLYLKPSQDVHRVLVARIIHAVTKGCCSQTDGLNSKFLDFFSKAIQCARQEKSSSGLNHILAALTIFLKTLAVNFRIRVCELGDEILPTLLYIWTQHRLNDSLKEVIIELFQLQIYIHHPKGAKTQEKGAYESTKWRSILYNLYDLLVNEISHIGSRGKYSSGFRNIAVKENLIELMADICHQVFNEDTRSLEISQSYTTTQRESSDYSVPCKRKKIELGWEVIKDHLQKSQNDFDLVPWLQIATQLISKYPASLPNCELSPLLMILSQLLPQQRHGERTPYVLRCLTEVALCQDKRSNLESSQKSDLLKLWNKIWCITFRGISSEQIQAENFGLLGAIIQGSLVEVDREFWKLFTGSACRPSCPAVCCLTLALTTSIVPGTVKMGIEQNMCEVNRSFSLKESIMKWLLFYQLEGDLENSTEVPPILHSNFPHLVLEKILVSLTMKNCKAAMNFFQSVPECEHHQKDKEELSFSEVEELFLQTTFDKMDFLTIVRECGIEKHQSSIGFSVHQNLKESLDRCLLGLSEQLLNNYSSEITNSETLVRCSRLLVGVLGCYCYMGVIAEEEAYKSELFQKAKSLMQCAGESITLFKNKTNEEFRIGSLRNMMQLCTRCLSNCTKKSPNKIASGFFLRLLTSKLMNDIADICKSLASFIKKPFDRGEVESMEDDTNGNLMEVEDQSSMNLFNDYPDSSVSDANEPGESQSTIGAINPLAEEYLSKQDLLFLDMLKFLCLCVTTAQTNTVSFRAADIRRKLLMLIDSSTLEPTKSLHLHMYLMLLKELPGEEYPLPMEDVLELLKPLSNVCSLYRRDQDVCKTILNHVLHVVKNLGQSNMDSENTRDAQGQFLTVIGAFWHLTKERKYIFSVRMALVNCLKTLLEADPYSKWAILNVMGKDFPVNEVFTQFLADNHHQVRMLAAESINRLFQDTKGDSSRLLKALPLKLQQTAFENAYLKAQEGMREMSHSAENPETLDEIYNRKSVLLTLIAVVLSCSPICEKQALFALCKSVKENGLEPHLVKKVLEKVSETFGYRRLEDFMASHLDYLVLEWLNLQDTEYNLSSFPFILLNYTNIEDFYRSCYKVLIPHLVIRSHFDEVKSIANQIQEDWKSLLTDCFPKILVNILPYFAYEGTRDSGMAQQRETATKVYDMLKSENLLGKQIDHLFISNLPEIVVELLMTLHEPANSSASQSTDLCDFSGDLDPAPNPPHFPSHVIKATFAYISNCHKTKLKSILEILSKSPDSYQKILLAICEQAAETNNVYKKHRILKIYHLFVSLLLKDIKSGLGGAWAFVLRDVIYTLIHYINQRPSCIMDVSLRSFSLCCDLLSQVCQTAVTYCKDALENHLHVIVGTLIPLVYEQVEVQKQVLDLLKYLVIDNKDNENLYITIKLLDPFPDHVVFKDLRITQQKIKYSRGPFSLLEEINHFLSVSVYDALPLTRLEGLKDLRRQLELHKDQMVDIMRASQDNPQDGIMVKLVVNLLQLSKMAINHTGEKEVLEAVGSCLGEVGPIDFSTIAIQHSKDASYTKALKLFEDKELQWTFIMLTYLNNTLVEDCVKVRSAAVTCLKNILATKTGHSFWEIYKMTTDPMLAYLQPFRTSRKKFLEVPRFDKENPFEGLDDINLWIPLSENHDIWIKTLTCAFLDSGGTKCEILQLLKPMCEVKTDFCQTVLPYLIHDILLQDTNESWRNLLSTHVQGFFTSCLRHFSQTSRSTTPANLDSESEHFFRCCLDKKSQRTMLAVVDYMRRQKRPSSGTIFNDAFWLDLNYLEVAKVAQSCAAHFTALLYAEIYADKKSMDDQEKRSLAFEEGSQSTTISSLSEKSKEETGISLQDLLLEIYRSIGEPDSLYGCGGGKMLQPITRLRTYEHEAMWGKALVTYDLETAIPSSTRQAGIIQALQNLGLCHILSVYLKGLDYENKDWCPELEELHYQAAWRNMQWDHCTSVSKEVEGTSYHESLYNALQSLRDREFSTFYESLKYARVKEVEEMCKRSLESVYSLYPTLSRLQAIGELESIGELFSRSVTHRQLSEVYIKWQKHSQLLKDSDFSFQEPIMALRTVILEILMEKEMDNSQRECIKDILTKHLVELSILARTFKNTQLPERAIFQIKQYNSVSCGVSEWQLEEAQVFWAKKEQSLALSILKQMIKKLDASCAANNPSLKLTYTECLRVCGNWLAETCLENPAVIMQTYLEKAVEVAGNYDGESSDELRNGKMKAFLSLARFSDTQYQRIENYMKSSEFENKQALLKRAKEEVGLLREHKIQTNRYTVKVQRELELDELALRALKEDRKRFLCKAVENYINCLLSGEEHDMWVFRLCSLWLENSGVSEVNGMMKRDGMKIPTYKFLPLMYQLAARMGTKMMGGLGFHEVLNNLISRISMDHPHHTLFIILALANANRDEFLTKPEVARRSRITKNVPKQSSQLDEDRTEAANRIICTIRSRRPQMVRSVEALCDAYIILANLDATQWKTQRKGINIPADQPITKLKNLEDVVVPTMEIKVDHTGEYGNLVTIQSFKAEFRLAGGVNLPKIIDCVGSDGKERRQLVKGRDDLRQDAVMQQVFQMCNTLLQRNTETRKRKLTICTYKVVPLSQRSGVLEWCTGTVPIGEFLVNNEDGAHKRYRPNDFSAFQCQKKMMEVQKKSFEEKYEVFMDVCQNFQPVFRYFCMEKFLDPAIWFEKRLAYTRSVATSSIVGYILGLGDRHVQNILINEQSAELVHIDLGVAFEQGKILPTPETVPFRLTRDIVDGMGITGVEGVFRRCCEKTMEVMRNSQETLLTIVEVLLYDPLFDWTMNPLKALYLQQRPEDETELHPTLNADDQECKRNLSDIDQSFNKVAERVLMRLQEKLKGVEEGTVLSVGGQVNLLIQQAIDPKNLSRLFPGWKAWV
# For at least one compound, name, drawing or mass did not settle the structure.
# Columns and labels:
# [1] = target: T1, DNA-PK (Homo sapiens, UniProt P78527); assay: DNA-PK kinase assay (GST-p53 substrate); type: biochemical; details: in vitro, 50 μM ATP, FIG. 6
# T1 construct: DNA-PK was purified from HeLa nuclear extract as described previously (Gell et al., 1999); endogenous in cells; host or cells: HeLa nuclear extract
# [2] = target: ATM (Homo sapiens, UniProt Q13315); details: Moyal 1998; Sakaria 1998; Smith 1999; cited from earlier work
SMILES,concentration at which DNA-PK phosphorylation of p53 substrate is (almost) completely inhibited [1] [µM],inhibition of ATM function [2]
O=c1cc(N2CCOCC2)oc2c(-c3ccccc3)cccc12 [LY294002],50,–
COC[C@H]1OC(=O)c2coc3c2[C@@]1(C)C1=C(C3=O)[C@@H]2CCC(=O)[C@@]2(C)C[C@H]1OC(C)=O [wortmannin],0.25,inhibit the function of the related kinase ATM
